{"source": "PubChem BioAssay AID743121 (NCATS, 2013)", "assay": "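Partners whose loss is lethal together with topoisomerase I blockade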 (primary screen)", "cell system": "MDA-MB-231 cells, a human breast cancer line", "reagents": "single siRNA against human genes, 20 nM siRNA (0.8 pmol per well)", "time to read-out": "120 h (drug added 48 h after transfection, read 72 h later)", "treatment": "camptothecin 20 nM (about EC30) for 72 h; vehicle 0.1% DMSO in parallel plates", "measurement": "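Cell viability by ATP luminescence (CellTiter-Glo) as % of non-targeting siRNA wells, and the log2 ratio of viability without drug over viability with camptothecin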", "reading the numbers": "log2 vehicle/camptothecin viability: higher = stronger sensitisation to camptothecin", "hit rule": "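Each gene scored by redundant siRNA activity (RSA) over its individual siRNA ratios; a gene is called active at p < 0.001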", "note": "Shown is one part, drawn at random, of about 26,000 deposited reagents. In the full data, 167 (0.63%) were called active. 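Calls are per gene from RSA p-values that are not deposited; an individual active-marked siRNA can sensitise only weakly.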 Further read-outs or replicates are left out here."}
{"Target gene": "CD86", "PubChem SID": "SID164357200", "log2 vehicle/camptothecin viability": 0.12, "call": "inactive"}
{"Target gene": "CD86", "PubChem SID": "SID164357201", "log2 vehicle/camptothecin viability": -0.378, "call": "inactive"}
{"Target gene": "CD86", "PubChem SID": "SID164357203", "log2 vehicle/camptothecin viability": -0.344, "call": "inactive"}
{"Target gene": "CD86", "PubChem SID": "SID164357204", "log2 vehicle/camptothecin viability": -0.228, "call": "inactive"}
{"Target gene": "INPP5F", "PubChem SID": "SID164444105", "log2 vehicle/camptothecin viability": -0.0708, "call": "inactive"}
{"Target gene": "INPP5F", "PubChem SID": "SID164444106", "log2 vehicle/camptothecin viability": -0.0228, "call": "inactive"}
{"Target gene": "INPP5F", "PubChem SID": "SID164444108", "log2 vehicle/camptothecin viability": -0.00875, "call": "inactive"}
{"Target gene": "INPP5F", "PubChem SID": "SID164444111", "log2 vehicle/camptothecin viability": 0.197, "call": "inactive"}
{"Target gene": "INPP5F", "PubChem SID": "SID164444112", "log2 vehicle/camptothecin viability": 0.00339, "call": "inactive"}
{"Target gene": "INPP5F", "PubChem SID": "SID164444113", "log2 vehicle/camptothecin viability": -0.559, "call": "inactive"}
{"Target gene": "INPP5F", "PubChem SID": "SID164444114", "log2 vehicle/camptothecin viability": -0.125, "call": "inactive"}
{"Target gene": "INPP5F", "PubChem SID": "SID164444115", "log2 vehicle/camptothecin viability": 0.318, "call": "inactive"}
{"Target gene": "BCAP29", "PubChem SID": "SID164487921", "log2 vehicle/camptothecin viability": -0.314, "call": "inactive"}
{"Target gene": "BCAP29", "PubChem SID": "SID164487924", "log2 vehicle/camptothecin viability": -0.0104, "call": "inactive"}
{"Target gene": "BCAP29", "PubChem SID": "SID164487926", "log2 vehicle/camptothecin viability": 0.167, "call": "inactive"}
{"Target gene": "ACP4", "PubChem SID": "SID164552676", "log2 vehicle/camptothecin viability": -0.117, "call": "inactive"}
{"Target gene": "ACP4", "PubChem SID": "SID164552680", "log2 vehicle/camptothecin viability": -0.0528, "call": "inactive"}
{"Target gene": "ACP4", "PubChem SID": "SID164552681", "log2 vehicle/camptothecin viability": -0.0847, "call": "inactive"}
{"Target gene": "ACP4", "PubChem SID": "SID164552682", "log2 vehicle/camptothecin viability": 1.81, "call": "inactive"}

2 successive reagents already listed, for reference:
{"Target gene": "ACP4", "PubChem SID": "SID164552681", "log2 vehicle/camptothecin viability": -0.0847, "call": "inactive"}
{"Target gene": "ACP4", "PubChem SID": "SID164552682", "log2 vehicle/camptothecin viability": 1.81, "call": "inactive"}

More results:
{"Target gene": "USP32", "PubChem SID": "SID164546157", "log2 vehicle/camptothecin viability": -0.227, "call": "inactive"}
{"Target gene": "USP32", "PubChem SID": "SID164546159", "log2 vehicle/camptothecin viability": -0.187, "call": "inactive"}
{"Target gene": "USP32", "PubChem SID": "SID164546164", "log2 vehicle/camptothecin viability": -0.0121, "call": "inactive"}
{"Target gene": "USP32", "PubChem SID": "SID164546165", "log2 vehicle/camptothecin viability": 0.159, "call": "inactive"}
{"Target gene": "NOD2", "PubChem SID": "SID164501324", "log2 vehicle/camptothecin viability": -0.4, "call": "inactive"}
{"Target gene": "NOD2", "PubChem SID": "SID164501325", "log2 vehicle/camptothecin viability": -0.534, "call": "inactive"}
{"Target gene": "NOD2", "PubChem SID": "SID164501327", "log2 vehicle/camptothecin viability": -0.0208, "call": "inactive"}
{"Target gene": "NOD2", "PubChem SID": "SID164501329", "log2 vehicle/camptothecin viability": 0.179, "call": "inactive"}
{"Target gene": "PLCB2", "PubChem SID": "SID164381069", "log2 vehicle/camptothecin viability": -0.515, "call": "inactive"}
{"Target gene": "PLCB2", "PubChem SID": "SID164381070", "log2 vehicle/camptothecin viability": -0.27, "call": "inactive"}
{"Target gene": "PLCB2", "PubChem SID": "SID164381074", "log2 vehicle/camptothecin viability": -0.225, "call": "inactive"}
{"Target gene": "RASSF1", "PubChem SID": "SID164416185", "log2 vehicle/camptothecin viability": -0.243, "call": "inactive"}
{"Target gene": "RASSF1", "PubChem SID": "SID164416187", "log2 vehicle/camptothecin viability": -0.244, "call": "inactive"}
{"Target gene": "RASSF1", "PubChem SID": "SID164416188", "log2 vehicle/camptothecin viability": 0.13, "call": "inactive"}
{"Target gene": "RASSF1", "PubChem SID": "SID164416189", "log2 vehicle/camptothecin viability": -0.522, "call": "inactive"}
{"Target gene": "AIFM3", "PubChem SID": "SID164575772", "log2 vehicle/camptothecin viability": -0.483, "call": "active"}
{"Target gene": "AIFM3", "PubChem SID": "SID164575773", "log2 vehicle/camptothecin viability": -0.257, "call": "active"}
{"Target gene": "AIFM3", "PubChem SID": "SID164575776", "log2 vehicle/camptothecin viability": 2.41, "call": "active"}
{"Target gene": "AIFM3", "PubChem SID": "SID164575777", "log2 vehicle/camptothecin viability": 0.0331, "call": "active"}
